Test results: patent EP2635293B1, “SKIN WOUND HEALING COMPOSITIONS AND METHODS OF USE THEREOF” (University of Southern California, priority 2010, dated 2018)
At least one peptide structure holds a part that was inferred or is arguable (an end, a ring closure or a residue). No end group written: not given here.

System: HKC migration
Assay: HKC (human keratinocyte) cell migration / pro-motility activity of hsp90α domains and fragments (Fig. 1)
Assay type: cell-based
Settings: relative to full length hsp90α

EEKEDKEEEKEKEEKESEDKPEIEDVGSDEEEEKKDGDKKKKKKIKEKYIDQEE [F-5]
activity on cell migration: 100%
